Test results as given in article PMC6803685.
These are yes or no findings as the source states them, for the method shown. Binding seen in cells or lysates may run through a third protein. Some results given as binding are weak or reduced against the parent protein; the word gives no strength.

By UniProt entry, the sequences of proteins in these tests, tags left out.
UniProt P14618: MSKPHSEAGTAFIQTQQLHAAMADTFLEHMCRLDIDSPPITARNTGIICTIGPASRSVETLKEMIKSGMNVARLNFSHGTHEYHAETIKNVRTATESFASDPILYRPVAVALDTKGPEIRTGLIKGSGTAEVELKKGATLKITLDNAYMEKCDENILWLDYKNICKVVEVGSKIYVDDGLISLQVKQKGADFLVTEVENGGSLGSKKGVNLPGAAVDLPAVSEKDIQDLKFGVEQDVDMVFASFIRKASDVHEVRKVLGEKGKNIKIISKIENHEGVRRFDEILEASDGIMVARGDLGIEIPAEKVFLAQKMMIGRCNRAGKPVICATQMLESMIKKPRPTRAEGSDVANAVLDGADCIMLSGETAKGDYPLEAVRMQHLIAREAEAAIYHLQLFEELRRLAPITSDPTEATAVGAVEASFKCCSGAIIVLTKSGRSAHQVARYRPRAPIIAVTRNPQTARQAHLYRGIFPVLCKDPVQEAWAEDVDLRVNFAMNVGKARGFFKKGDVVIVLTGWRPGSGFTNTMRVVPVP

Target: T1, VE-cadherin (human (endogenous in HUVEC)) (UniProt P33151)
T1 sequence: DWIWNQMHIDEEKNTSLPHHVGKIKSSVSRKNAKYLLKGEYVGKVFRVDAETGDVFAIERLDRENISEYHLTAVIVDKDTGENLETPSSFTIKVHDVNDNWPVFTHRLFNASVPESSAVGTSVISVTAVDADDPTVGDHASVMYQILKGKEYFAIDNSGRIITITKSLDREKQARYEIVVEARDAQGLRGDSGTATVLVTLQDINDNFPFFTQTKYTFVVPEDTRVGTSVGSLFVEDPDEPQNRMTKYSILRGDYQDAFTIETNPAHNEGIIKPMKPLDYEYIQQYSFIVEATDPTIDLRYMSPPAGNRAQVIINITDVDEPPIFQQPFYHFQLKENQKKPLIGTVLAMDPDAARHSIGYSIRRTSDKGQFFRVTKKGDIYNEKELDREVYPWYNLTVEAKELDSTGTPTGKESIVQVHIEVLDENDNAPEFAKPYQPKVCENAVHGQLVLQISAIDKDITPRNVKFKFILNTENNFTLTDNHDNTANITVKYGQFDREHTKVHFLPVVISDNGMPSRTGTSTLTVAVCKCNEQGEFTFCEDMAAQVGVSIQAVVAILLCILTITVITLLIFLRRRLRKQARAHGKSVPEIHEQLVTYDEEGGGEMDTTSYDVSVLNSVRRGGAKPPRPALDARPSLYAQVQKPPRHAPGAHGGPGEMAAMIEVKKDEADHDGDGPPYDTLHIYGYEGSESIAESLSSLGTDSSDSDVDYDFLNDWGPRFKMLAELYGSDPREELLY
Assay: proximity ligation; confluent HUVECs, fixed and permeabilized; Duolink PLA with rabbit anti-PKM2 and goat anti-VE-cadherin primary antibodies overnight at 4 °C; rabbit and goat IgGs as negative control

binding: binds
Substance: pyruvate kinase 2 (PKM2) (from UniProt P14618 1-531) (enzyme)
